This note sets out measurements from article PMC10045983.

By UniProt entry, the sequences of proteins in these tests, tags left out.
UniProt Q4QQW4: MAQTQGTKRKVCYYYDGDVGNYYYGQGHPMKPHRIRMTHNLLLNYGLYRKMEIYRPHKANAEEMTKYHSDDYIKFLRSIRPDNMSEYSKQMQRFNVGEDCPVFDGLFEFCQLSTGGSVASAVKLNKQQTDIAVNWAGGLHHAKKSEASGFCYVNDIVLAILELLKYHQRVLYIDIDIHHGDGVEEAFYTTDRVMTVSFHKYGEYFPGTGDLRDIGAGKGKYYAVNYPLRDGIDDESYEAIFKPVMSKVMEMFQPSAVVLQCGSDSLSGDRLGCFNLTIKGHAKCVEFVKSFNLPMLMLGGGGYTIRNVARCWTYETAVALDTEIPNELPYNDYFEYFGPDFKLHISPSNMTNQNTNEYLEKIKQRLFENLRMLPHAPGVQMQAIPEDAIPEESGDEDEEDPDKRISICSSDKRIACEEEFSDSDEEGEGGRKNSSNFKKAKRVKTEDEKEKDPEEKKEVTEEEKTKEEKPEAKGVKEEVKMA
UniProt Q14432: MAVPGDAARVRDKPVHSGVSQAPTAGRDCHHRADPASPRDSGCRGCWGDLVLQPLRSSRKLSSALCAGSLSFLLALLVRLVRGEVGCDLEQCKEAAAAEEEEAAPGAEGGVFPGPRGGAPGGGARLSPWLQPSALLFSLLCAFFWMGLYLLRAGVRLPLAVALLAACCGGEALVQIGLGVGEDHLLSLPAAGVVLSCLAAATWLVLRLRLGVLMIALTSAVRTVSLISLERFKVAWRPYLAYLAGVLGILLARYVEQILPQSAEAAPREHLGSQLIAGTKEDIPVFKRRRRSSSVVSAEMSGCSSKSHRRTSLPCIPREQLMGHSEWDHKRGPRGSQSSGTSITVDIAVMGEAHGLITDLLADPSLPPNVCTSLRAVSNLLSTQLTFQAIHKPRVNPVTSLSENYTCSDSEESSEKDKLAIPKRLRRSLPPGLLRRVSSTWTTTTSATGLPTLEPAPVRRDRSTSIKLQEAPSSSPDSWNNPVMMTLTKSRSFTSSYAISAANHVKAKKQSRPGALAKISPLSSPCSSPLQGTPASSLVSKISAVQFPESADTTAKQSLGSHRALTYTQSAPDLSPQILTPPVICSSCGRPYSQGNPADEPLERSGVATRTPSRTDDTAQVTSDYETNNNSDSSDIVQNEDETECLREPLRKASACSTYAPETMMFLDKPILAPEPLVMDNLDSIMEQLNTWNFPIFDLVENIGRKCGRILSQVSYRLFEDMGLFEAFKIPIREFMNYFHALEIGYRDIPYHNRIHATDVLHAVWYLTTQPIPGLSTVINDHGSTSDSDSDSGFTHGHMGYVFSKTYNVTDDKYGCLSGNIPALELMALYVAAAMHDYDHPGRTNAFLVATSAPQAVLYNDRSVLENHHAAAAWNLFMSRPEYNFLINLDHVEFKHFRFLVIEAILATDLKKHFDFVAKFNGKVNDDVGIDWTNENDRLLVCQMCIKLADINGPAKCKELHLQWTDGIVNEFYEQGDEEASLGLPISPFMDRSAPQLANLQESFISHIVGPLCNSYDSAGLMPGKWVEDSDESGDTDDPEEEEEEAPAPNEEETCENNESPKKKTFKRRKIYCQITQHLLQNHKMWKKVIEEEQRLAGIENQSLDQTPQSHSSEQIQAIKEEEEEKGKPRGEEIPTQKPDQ
UniProt O70437: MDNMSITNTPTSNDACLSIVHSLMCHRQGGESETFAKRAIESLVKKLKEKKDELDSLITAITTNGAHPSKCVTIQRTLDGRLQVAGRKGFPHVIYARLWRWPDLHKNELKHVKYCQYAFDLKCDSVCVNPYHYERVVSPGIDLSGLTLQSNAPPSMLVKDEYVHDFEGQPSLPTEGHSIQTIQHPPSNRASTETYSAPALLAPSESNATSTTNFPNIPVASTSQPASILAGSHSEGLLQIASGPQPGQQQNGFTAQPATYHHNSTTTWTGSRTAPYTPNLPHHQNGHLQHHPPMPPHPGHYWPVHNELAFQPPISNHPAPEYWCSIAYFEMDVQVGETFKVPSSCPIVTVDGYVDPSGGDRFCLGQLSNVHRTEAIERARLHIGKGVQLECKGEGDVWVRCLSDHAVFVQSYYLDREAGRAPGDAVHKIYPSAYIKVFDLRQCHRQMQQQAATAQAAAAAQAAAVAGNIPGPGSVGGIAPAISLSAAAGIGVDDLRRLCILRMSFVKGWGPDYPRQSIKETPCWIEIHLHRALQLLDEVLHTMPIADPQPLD
UniProt P12368: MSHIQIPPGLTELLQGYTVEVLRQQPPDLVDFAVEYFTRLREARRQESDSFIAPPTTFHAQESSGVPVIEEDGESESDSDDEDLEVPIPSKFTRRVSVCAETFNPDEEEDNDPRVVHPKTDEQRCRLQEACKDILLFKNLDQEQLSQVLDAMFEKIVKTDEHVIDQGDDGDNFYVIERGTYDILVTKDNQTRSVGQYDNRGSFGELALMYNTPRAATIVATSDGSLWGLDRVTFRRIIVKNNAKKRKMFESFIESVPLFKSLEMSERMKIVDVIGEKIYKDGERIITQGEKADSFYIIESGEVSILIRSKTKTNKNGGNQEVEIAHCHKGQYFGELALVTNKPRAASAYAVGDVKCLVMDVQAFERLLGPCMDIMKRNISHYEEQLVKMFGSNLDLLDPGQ

Results are given in words; binding and its absence hold for the method and conditions named. Binding seen in cells or lysates may run through a third protein. Some results given as binding are weak or reduced against the parent protein; the word gives no strength.

In one test the target is Flag HDAC-1 (UniProt Q4QQW4). Put plainly: co-IP; Flag pull down from lysates of NRVM expressing HDAC-1-Flag; Western blot for PDE3A, PKA RIIα and Cα. (A western blot detects proteins with antibodies after separation by electrophoresis.)
The next test deals with PDE3A1-mCherry (UniProt Q14432). As to the kind of experiment: co-IP; RFP-Trap beads, lysates of NRVM expressing RFP (mCherry)-tagged PDE3A1 or PDE3A2; Western blot for endogenous SMAD4 and HDAC-1.
For another test, the target named is Flag SMAD4 (UniProt O70437). As to the kind of experiment: co-IP; Flag M2 agarose beads, lysates of NRVM expressing Flag-tagged SMAD4; immunoprecipitate probed with anti-PDE3A antibody.
The target of test [1] is SMAD4 (SMAD family member 4), endogenous, rat (rat (endogenous in NRVM, ARVM and rat left ventricle)) (UniProt O70437). As to the kind of experiment: co-IP; endogenous proteins from NRVM lysates, anti-SMAD4 or anti-PDE3A antibody and protein A beads, overnight at 4 °C; Western blot.

For “PKA regulatory subunit (RIIα), endogenous, rat (from UniProt P12368 1-401)”, the binding result in the test with Flag HDAC-1 was “binds”.

For “SMAD4 (SMAD family member 4), endogenous, rat (from UniProt O70437 1-552)”, the binding result with PDE3A1-mCherry was “binds”.

B1: PDE3A1, endogenous, rat (enzyme, UniProt Q62865 1-1141)
chain: MAVRGEAAQDWAKPGLRGPSPAPVARGDHRCRGGSPSSPRGSGCCWRALALQPLRRSPQLSSALCAGSLSVLLALLVRLVGGEVGGELESSQEAAAEEEEEEGARGGVFPGPRGGAPGGGAQLSPWLQPAALLFSLLCAFFWMGLCLLRAGVRLPLAVALLAACCAGEALVQLSLGVGDGRLLSLPAAGVLLSCLGGATWLVLRLRLGVLMVALTSALRTVALVSLERFKVAWRPYLAYLAAVLGLLLARYAEQLLPQCSGPAPPRERFGSQSSARTKEEIPGWKRRRRSSSVVAGEMSGCGGKSHRRTSLPCIPREQLMGHSEWDHKRGSRGSQSGTSVTVDIAVMGEAHGLITDLLADPSLPPNVCTSLRAVSNLLSTQLTFQAIHKPRVNPTVTFSENYTCSDSEEGLEKDKLAIPKRLRRSLPPGLLRRVSSTWTTTTSATGLPTLEPAPVRRDRSASIKPHEAPSPSAVNPDSWNAPVLMTLTKSRSFTSSYAVSAANHVKAKKQNRPGGLDKISPVPSPSSSPPQGSPTSSPVSGIASVQFPESPEVTTKRGPGSHRALTYTQSAPDLSPQIPPSPVICSSCGRPYSQGNPADGPSERSGPAMQKPNRTDDTSQVTSDYETNNNSDSSDILQNDEEAECQREPLRKASACGTYTPQTMIFLDKPILAPEPLVMDNLDSIMDQLNTWNFPIFDLVENIGRKCGRILSQVSYRLFEDMGLFEAFKIPVREFMNYFHALEIGYRDIPYHNRIHATDVLHAVWYLTTQPIPGLPSVIGDHGSASDSDSDSGFTHGHMGYVFSKAYHVPDDKYGCLSGNIPALELMALYVAAAMHDYDHPGRTNAFLVATSAPQAVLYNDRSVLENHHAAAAWNLFMSRPEYNFLVNLDHVEFKHFRFLVIEAILATDLKKHFDFVAKFNAKVNDDVGIDWTNENDRLLVCQMCIKLADINGPAKCKDLHLRWTEGIASEFYEQGDEEASLGLPISPFMDRSAPQLANLQESFISHIVGPLCHSYDSAGLMPGKWVDDSDDSGDTDDPEEEEEEAETPHEEETCENSEAPRKKSFKRRRIYCQITQHLLQNHMMWKKVIEEEQCLSGTENQAPDQAPLQHSSEQIQAIKEEEEEKGKPRAEETLAPQPDL
As to B1, the binding entry (with Flag SMAD4; in test [1]) was “no binding” each time.
